Experimental findings from doi:10.1101/2023.10.13.562155 (bioRxiv, 2023) are described below.

Protein sequences, listed by entry. Tags and fused reporters are not part of them. Lines headed by an entry give the natural chain unless they say otherwise; changes in a name come on top. Residues count along the entry.
UniProt Q9Z0W1, 32-427: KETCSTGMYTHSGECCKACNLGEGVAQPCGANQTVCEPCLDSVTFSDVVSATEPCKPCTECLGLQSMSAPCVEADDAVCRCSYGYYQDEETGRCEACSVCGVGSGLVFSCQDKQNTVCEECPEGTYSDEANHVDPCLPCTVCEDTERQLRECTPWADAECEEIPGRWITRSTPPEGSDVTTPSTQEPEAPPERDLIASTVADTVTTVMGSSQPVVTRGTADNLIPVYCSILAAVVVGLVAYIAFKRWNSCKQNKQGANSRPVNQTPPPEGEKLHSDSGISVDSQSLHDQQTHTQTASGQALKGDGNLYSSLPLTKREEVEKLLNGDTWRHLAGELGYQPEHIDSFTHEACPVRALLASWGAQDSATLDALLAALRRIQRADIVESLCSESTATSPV
UniProt Q9Z0W1, whole entry, looked up, stated change not applied: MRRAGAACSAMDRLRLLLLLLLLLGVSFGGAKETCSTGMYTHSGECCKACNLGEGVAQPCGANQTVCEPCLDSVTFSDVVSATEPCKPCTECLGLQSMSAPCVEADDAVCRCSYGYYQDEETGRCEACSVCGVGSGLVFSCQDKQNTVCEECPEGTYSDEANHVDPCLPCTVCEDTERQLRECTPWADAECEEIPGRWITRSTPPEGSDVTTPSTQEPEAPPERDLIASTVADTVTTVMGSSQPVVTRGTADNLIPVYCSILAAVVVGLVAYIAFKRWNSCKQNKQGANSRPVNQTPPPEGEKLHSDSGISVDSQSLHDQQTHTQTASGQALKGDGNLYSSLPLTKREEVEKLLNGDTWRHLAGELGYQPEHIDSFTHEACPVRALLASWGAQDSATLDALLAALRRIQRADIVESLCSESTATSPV
UniProt P58801, whole entry: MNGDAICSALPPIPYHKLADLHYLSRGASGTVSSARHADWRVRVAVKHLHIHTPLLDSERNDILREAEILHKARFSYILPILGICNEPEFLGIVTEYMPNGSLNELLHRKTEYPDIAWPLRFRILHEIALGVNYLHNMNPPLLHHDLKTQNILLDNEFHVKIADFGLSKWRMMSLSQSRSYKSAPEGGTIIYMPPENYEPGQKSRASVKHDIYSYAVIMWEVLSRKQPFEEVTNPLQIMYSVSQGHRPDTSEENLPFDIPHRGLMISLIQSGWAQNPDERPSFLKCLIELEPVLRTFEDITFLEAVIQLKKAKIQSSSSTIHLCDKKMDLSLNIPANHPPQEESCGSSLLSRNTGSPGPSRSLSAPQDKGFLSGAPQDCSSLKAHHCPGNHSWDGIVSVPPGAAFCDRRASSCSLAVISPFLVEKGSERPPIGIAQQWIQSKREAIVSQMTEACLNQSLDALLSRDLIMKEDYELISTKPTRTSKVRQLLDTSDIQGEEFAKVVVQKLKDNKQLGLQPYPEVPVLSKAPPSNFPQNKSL
UniProt Q9QUI0, whole entry: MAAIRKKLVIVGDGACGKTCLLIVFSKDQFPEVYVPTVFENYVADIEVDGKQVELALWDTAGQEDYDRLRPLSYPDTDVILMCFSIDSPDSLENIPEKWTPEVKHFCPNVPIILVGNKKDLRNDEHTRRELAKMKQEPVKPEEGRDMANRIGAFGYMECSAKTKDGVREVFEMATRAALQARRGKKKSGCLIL

Like-named read-outs stand apart in the source and are kept apart here. These are yes or no findings as the source states them, for the method shown. In cells and extracts the contact can be indirect. Some binding calls cover weakened binding; strength is not graded here. For some of these results: Tags and fused reporters may be left off the sequences shown.

Assay [1] addresses mouse p75^NTR K303A (mouse) (UniProt Q9Z0W1). Nature of the assay: co-IP.
In assay [2] the target is mouse p75^NTR wild type, transfected in NIH3T3 cells (mouse) (UniProt Q9Z0W1). Nature of the assay: co-IP.
In assay [3] the target is T1, Flag-tagged mouse RhoGDI S34A (mouse) (UniProt Q99PT1).
T1 sequence: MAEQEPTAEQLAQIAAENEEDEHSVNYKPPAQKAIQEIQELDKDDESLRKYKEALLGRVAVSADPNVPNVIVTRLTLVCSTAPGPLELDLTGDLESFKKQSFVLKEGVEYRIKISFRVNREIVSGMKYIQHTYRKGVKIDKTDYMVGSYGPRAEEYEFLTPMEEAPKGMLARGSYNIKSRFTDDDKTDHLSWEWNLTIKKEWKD
Nature of the assay: co-IP.

In assay [4] the target is T2, Flag-tagged mouse RhoGDI S34D (mouse) (UniProt Q99PT1).
T2 sequence: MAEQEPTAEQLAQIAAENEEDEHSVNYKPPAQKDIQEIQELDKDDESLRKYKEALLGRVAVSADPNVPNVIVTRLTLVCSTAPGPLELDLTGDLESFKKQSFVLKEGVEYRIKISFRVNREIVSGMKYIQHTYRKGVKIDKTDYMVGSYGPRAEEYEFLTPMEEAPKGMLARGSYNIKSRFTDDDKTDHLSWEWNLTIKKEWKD
The assay is described as follows: co-IP.

Assay [5] deals with T3, Flag-tagged mouse RhoGDI S34D/S96A double mutant (mouse) (UniProt Q99PT1).
T3 sequence: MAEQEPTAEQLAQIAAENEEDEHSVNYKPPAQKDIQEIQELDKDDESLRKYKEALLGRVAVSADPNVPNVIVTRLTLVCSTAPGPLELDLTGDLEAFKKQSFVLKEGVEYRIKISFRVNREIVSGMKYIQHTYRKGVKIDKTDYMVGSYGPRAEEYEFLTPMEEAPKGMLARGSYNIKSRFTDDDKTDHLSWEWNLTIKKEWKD
Nature of the assay: co-IP.

For assay [6], the target named is T4, Flag-tagged mouse RhoGDI S96A (mouse) (UniProt Q99PT1).
T4 sequence: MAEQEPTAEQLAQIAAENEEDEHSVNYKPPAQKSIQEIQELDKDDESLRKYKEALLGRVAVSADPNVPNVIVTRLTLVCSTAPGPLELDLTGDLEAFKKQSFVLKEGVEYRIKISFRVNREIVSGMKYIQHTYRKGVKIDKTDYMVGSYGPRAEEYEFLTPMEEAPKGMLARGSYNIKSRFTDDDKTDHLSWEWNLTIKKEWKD
The assay is described as follows: co-IP.

Assay [7] concerns the target T5, Flag-tagged mouse RhoGDI wild type (mouse) (UniProt Q99PT1).
T5 sequence: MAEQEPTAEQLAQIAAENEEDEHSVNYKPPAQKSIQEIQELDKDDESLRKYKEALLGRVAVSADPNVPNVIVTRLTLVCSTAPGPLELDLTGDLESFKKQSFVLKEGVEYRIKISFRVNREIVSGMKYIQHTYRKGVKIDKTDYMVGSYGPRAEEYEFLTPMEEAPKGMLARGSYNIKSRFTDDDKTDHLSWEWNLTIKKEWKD
Nature of the assay: co-IP.

Assay [8] concerns the target mouse p75^NTR K282A/K285A double mutant (mouse) (UniProt Q9Z0W1). The assay is described as follows: co-IP.
Assay [9] deals with mouse p75^NTR K303A (mouse) (UniProt Q9Z0W1). Nature of the assay: co-IP. This is another data set of the same source.
For assay [10], the target named is mouse p75^NTR wild type, transfected in NIH3T3 cells (mouse) (UniProt Q9Z0W1). Nature of the assay: co-IP. This is another data set of the same source.
In assay [11] the target is p75 neurotrophin receptor (p75^NTR), endogenous in cerebellar granule neurons (mouse (endogenous in P7 CGNs)) (UniProt Q9Z0W1). The assay is described as follows: co-IP.
For assay [12] the target is unchanged. Nature of the assay: co-IP. The source holds these as a separate data set.
The target in assay [13] is p75^NTR wild type expressed by lentivirus in p75^NTR knock-out CGNs (mouse) (UniProt Q9Z0W1). Nature of the assay: proximity ligation.
The target of assay [14] is HA-tagged p75^NTR wild type, electroporated into p75^NTR knock-out CGNs (mouse) (UniProt Q9Z0W1). The assay is described as follows: co-IP.
In assay [15] the target is mouse p75^NTR K303D (mouse) (UniProt Q9Z0W1). Nature of the assay: co-IP.

On to “mouse Myc-RIP2 (from UniProt P58801 1-539)”, for which the binding entry in assay [1] and in assay [2] was “binds” each time.
Take HA-RhoA (from UniProt Q9QUI0 1-193): the binding result in [3], in assay [4], in assay [5], in [6] and in assay [7] was “binds” each time.

B1: RhoGDI-59: the 59 N-terminal residues of RhoGDI fused to GST, Flag-tagged (domain or fragment, UniProt Q99PT1 1-59)
chain: MAEQEPTAEQLAQIAAENEEDEHSVNYKPPAQKSIQEIQELDKDDESLRKYKEALLGRV
On to B1, for which the binding result in assay [8] is reported as “binds”; in assay [9], “no binding”; in assay [10], “binds”.

B2: RhoGDI-59 S34D (GST fusion, Flag-tagged) (domain or fragment, UniProt Q99PT1 1-59)
chain: MAEQEPTAEQLAQIAAENEEDEHSVNYKPPAQKDIQEIQELDKDDESLRKYKEALLGRV
For the molecule B2, the binding result in assay [10] is listed as “binds”.

B3: RhoGDI-59 S34A (GST fusion, Flag-tagged) (domain or fragment, UniProt Q99PT1 1-59)
chain: MAEQEPTAEQLAQIAAENEEDEHSVNYKPPAQKAIQEIQELDKDDESLRKYKEALLGRV
Take B3: the binding result in [10] was “no binding”.
With CPAQKSIQEI (phosphoserine (pS; Ser34 of RhoGDI)) [phospho-Ser^34 RhoGDI peptide (Cys-PAQKpSIQEI)], in assay [11], the binding result is “binds”.

B4: Flag-tagged RhoGDI construct lacking the NTD (RhoGDI-Δ59) (domain or fragment, UniProt Q99PT1 60-204)
chain: AVSADPNVPNVIVTRLTLVCSTAPGPLELDLTGDLESFKKQSFVLKEGVEYRIKISFRVNREIVSGMKYIQHTYRKGVKIDKTDYMVGSYGPRAEEYEFLTPMEEAPKGMLARGSYNIKSRFTDDDKTDHLSWEWNLTIKKEWKD
B4: the binding entry in assay [8], in [9] and in assay [10] was “binds” each time.

B5: Rho GDP-dissociation inhibitor (RhoGDI), endogenous in cerebellar granule neurons (protein, UniProt Q99PT1 1-204)
chain: MAEQEPTAEQLAQIAAENEEDEHSVNYKPPAQKSIQEIQELDKDDESLRKYKEALLGRVAVSADPNVPNVIVTRLTLVCSTAPGPLELDLTGDLESFKKQSFVLKEGVEYRIKISFRVNREIVSGMKYIQHTYRKGVKIDKTDYMVGSYGPRAEEYEFLTPMEEAPKGMLARGSYNIKSRFTDDDKTDHLSWEWNLTIKKEWKD
Consider B5, for which the binding entry in [12], in assay [13], in assay [14] and in [11] was “binds” each time.

B6: mouse RhoGDI S34K (protein, UniProt Q99PT1 1-204)
chain: MAEQEPTAEQLAQIAAENEEDEHSVNYKPPAQKKIQEIQELDKDDESLRKYKEALLGRVAVSADPNVPNVIVTRLTLVCSTAPGPLELDLTGDLESFKKQSFVLKEGVEYRIKISFRVNREIVSGMKYIQHTYRKGVKIDKTDYMVGSYGPRAEEYEFLTPMEEAPKGMLARGSYNIKSRFTDDDKTDHLSWEWNLTIKKEWKD
As for B6, the results for the binding result in assay [9], in assay [15] and in assay [10] were “no binding”, “binds” and “no binding”, respectively.

B7: Flag-tagged mouse RhoGDI S34A (protein, UniProt Q99PT1 1-204)
chain: MAEQEPTAEQLAQIAAENEEDEHSVNYKPPAQKAIQEIQELDKDDESLRKYKEALLGRVAVSADPNVPNVIVTRLTLVCSTAPGPLELDLTGDLESFKKQSFVLKEGVEYRIKISFRVNREIVSGMKYIQHTYRKGVKIDKTDYMVGSYGPRAEEYEFLTPMEEAPKGMLARGSYNIKSRFTDDDKTDHLSWEWNLTIKKEWKD
Consider B7, for which, in assay [10], the binding result is recorded as “binds weakly”.

B8: Flag-tagged mouse RhoGDI S96A (protein, UniProt Q99PT1 1-204)
chain: MAEQEPTAEQLAQIAAENEEDEHSVNYKPPAQKSIQEIQELDKDDESLRKYKEALLGRVAVSADPNVPNVIVTRLTLVCSTAPGPLELDLTGDLEAFKKQSFVLKEGVEYRIKISFRVNREIVSGMKYIQHTYRKGVKIDKTDYMVGSYGPRAEEYEFLTPMEEAPKGMLARGSYNIKSRFTDDDKTDHLSWEWNLTIKKEWKD
On to B8, for which the binding result in assay [10] is “binds”.

B9: Flag-tagged mouse RhoGDI S34D (protein, UniProt Q99PT1 1-204)
chain: MAEQEPTAEQLAQIAAENEEDEHSVNYKPPAQKDIQEIQELDKDDESLRKYKEALLGRVAVSADPNVPNVIVTRLTLVCSTAPGPLELDLTGDLESFKKQSFVLKEGVEYRIKISFRVNREIVSGMKYIQHTYRKGVKIDKTDYMVGSYGPRAEEYEFLTPMEEAPKGMLARGSYNIKSRFTDDDKTDHLSWEWNLTIKKEWKD
Consider B9, for which the binding result in [15] is “no binding”; in assay [10], “binds”.

B10: Flag-tagged mouse RhoGDI S96D (protein, UniProt Q99PT1 1-204)
chain: MAEQEPTAEQLAQIAAENEEDEHSVNYKPPAQKSIQEIQELDKDDESLRKYKEALLGRVAVSADPNVPNVIVTRLTLVCSTAPGPLELDLTGDLEDFKKQSFVLKEGVEYRIKISFRVNREIVSGMKYIQHTYRKGVKIDKTDYMVGSYGPRAEEYEFLTPMEEAPKGMLARGSYNIKSRFTDDDKTDHLSWEWNLTIKKEWKD
B10: in [10], the binding entry is recorded as “binds”.
